Results published in patent publication US5731345A, “Seco-D steroids active on the cardiovascular system and pharmaceutical compositions containing same” (Sigma-Tau Industrie Farmaceutiche Riunite S.p.A, priority 1995, dated 1998).
At least one read-out could not be matched to a standard name with certainty.

Experiments:
Na^+, K^+ -ATPase [1] = biological target: T1, Na^+, K^+ -ATPase (Canis lupus familiaris, UniProt P50997); assay: displacement of specific ^3 H-oubain binding from purified Na^+, K^+ -ATPase receptor
T1 construct: from tissue
From the text: (§1) To test the affinity for the receptor site of the Na^+, K^+ -ATPase and the agonist or inhibitory activity on the enzyme, the following tests were used:
a) displacement of the specific ^3 H-oubain binding from the Na^+, K^+ -ATPase receptor purified according to Jorghensen (Jorghensen P., BBA, 1974, 356, 36) and Erdamnn (Erdmann E. et al., Arzneim. Forsh, 1984, 34, 1314);

Na^+, K^+ -ATPase [2] = format: biochemical; conditions: purified Na^+, hydrolysis of ^32 P-ATP
From the text: as §1
b) inhibition of the activity of the purified Na^+, K^+ -ATPase measured as % of hydrolysis of ^32 P-ATP in the presence and in the absence of the tested compound (Doucet A. et al., Am. J. Physiol., 1986, 251, F851).

Row | SMILES | Binding ^3 H-oubain displacement -log IC50 (Na^+, K^+ -ATPase [1]) | Inhibitory activity -log IC50 (Na^+, K^+ -ATPase [2])
1 | CC[C@H](C1=CC(=O)OC1)[C@@]1(C)CCC2=C(CC[C@@H]3C[C@@H](O)CC[C@]23C)C1=O [Comp. I-f, 3β-hydroxy-14-oxo-14,15-seco-5β-card-8,20(22)-dienolide] | 6.1 | 5.1
2 | C[C@]12CC[C@H](O)C[C@H]1CC[C@H]1[C@H](O)[C@@](C)([C@H](CCO)c3ccoc3)CC[C@@H]12 [Comp. I-b, 17β-(3-furyl)-14,15-seco-5β-androstan-3β,14β,15-triol] |  | 5.0
3 | C[C@]12CC[C@H](O)C[C@H]1CC[C@H]1C(=O)[C@@](C)([C@H](CC#N)C3=CC(=O)OC3)CC[C@@H]12 [Comp. I-g, 3β-hydroxy-14-oxo-14,15-seco-5β-card-20(22)-enolide-15-nitrile] | 6.5 | 5.5
4 | C[C@]12CC[C@H](O)C[C@H]1CC[C@H]1[C@H](O)[C@@](C)([C@H](CC#N)C3=CC(=O)OC3)CC[C@@H]12 [Comp. I-h, 3β,14β-dihydroxy-14,15-seco-5β-card-20(22)-enolide-15-nitrile] | 7.0 | 6.0
